This assay deals with T1, GST-tagged RB1 (UniProt P06400).
T1 sequence: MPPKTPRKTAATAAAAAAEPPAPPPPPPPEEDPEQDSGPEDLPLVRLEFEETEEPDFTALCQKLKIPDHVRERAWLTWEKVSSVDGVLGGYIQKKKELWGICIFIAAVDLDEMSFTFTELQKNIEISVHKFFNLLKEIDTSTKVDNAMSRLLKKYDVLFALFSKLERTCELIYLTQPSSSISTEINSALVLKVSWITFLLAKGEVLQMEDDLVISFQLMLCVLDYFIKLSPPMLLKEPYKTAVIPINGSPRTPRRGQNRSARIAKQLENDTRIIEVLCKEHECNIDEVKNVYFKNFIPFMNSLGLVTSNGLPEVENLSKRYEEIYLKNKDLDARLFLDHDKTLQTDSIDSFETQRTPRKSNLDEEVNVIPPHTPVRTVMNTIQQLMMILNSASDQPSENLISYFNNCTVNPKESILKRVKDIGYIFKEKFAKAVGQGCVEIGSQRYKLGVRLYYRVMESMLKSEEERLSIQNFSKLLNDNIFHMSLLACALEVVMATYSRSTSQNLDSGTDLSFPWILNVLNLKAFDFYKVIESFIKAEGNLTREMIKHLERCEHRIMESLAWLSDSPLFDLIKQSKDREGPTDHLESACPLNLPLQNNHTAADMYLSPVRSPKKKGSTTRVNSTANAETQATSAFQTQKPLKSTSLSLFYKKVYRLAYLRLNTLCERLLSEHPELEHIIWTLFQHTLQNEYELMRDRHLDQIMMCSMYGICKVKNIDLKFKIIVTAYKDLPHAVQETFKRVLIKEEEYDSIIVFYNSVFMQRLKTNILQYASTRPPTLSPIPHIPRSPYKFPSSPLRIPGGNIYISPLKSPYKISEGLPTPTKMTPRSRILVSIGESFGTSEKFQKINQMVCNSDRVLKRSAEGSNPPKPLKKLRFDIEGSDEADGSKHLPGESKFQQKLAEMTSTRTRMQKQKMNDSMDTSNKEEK
Briefly: affinity purification with mass spectrometry; GST-RB1 expressed in HEK293 cells, CDK4/6i treatment; 1000 μg lysate protein on Glutathione sepharose 4B 6 h at 4 °C, washed four times with NETN buffer (100 mM NaCl, 20 mM Tris-HCl pH 8.0, 0.5 mM EDTA, 0.5% NP-40), eluted with glutathione, LC-MS/MS.

The chains behind the UniProt entries cited, without tags or fusion partners.
UniProt Q12834: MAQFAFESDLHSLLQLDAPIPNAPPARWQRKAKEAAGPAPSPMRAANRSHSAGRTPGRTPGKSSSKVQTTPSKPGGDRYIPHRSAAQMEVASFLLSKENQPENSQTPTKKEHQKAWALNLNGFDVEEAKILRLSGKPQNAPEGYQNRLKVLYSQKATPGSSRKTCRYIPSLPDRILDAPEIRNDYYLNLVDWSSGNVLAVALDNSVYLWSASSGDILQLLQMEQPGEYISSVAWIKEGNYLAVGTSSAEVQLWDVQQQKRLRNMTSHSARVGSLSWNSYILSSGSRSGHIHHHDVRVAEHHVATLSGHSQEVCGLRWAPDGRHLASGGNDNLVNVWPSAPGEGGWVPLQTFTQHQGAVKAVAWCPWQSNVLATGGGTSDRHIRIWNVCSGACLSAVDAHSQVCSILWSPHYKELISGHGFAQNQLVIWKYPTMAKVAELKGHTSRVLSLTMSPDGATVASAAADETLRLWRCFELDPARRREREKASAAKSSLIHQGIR
UniProt P49674: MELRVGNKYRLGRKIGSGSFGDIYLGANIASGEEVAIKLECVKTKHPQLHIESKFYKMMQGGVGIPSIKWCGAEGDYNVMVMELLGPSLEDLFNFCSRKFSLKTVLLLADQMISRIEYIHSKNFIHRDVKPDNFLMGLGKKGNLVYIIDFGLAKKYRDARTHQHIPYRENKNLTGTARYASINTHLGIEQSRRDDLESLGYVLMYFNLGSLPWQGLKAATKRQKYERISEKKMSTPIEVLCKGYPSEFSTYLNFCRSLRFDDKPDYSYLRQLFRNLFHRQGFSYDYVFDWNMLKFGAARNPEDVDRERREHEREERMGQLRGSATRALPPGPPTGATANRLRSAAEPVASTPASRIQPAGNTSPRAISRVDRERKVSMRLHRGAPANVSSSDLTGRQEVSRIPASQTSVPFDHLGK
UniProt P63208: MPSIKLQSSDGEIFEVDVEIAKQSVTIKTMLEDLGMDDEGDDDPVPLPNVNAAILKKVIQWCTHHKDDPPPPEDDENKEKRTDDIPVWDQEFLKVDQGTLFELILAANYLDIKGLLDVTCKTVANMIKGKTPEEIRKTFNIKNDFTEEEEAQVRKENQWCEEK

These are yes or no findings as the source states them, for the method shown. In cells and extracts the contact can be indirect. A yes stands for co-enrichment or nearness to the bait. Other partners may have been found. Sequences can lack the tags named with a protein.

With “CDC20 (found with GST-RB1 by MS) (from UniProt Q12834 1-499)”, the binding result is recorded as “binds”.
“CK1ε (found with GST-RB1 by MS) (from UniProt P49674 1-416) (enzyme)”: the binding result is on record as “binds”.
“SKP1 (found with GST-RB1 by MS) (from UniProt P63208 1-163)”: the binding result is given as “binds”.

These data come from PMC8433397.
